Data from paper PMC10774266.
No constants are given. Whether binding was seen depends on the method and setting. In cells and extracts the contact can be indirect. Some entries that bind do so weakly or less than the wild type.

The chains behind the UniProt entries cited, without tags or fusion partners.
UniProt O75475: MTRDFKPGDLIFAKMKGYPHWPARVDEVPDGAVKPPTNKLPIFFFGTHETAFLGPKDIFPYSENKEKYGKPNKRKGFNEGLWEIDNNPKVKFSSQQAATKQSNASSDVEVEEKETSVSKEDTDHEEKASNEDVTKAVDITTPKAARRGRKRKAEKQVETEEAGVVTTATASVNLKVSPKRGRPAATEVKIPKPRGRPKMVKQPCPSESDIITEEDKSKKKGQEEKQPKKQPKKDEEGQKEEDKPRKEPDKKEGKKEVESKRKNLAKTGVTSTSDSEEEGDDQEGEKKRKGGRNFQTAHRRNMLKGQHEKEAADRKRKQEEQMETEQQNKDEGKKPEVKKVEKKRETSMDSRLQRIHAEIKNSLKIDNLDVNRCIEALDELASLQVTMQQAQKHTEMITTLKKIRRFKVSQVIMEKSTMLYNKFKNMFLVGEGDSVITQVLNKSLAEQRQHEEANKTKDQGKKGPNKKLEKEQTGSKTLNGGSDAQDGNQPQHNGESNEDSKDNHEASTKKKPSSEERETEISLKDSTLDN
UniProt P09874: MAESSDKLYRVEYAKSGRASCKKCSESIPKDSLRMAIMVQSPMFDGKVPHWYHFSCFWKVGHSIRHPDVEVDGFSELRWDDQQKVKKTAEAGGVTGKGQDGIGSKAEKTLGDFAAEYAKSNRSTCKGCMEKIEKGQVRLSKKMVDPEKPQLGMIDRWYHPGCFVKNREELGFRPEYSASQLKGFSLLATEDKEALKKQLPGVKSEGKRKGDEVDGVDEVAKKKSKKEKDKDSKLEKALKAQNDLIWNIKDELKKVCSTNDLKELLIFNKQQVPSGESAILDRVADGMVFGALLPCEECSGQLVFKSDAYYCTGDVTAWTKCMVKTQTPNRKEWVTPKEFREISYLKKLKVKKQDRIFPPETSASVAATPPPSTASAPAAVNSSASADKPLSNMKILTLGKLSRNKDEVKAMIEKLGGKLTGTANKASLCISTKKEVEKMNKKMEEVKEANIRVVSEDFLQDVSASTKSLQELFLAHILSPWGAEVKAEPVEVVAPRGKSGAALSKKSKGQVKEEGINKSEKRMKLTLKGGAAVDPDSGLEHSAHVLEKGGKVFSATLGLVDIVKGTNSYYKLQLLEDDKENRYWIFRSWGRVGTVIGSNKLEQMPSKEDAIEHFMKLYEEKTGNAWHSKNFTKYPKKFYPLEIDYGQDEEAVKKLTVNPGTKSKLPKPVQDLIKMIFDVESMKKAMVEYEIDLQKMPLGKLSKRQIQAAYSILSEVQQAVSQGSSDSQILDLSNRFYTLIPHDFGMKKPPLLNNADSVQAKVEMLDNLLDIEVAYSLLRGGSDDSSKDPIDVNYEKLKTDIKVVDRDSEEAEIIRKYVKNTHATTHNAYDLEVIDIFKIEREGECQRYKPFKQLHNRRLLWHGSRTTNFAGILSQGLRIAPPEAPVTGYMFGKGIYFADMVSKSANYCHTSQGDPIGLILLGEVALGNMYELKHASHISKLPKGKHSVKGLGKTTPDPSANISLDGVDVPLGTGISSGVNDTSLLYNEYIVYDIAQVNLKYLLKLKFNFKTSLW

Key:
[1] = target: γ-H2AX (human (endogenous in HEK293T)) (UniProt P16104); assay: co-IP; γ-H2AX IP from HEK293T extracts (control and PSIP1 KD; DMSO or camptothecin 10 μM, 2 h; with or without RNASEH1 overexpression); IgG as negative control; blot for PSIP1/p75
[2] = target: PSIP1 (PC4 and SF2 interacting protein) (human (endogenous in RWPE-1)) (UniProt O75475); assay: co-IP; anti-PSIP1 IP from nuclear extract in the presence of benzonase; Protein-A Dynabeads, overnight at 4 °C, washed in NP-40 lysis buffer (50 mM Tris-HCl pH 8.0, 150 mM KCl, 1% NP-40); IgG as negative control; western blot
eGFP-PARP1 = eGFP-PARP1 (UniProt P09874); assay: co-IP; eGFP-PARP1 captured on GFP-trap beads from cells expressing HA-PSIP1/p75 or HA-p52; blots with αGFP, αHA, γ-H2AX and PCNA antibodies

PSIP1/p75 (from UniProt O75475 1-530)
binding [1]: binds

PARP1 (from UniProt P09874 1-1014)
binding [2]: binds

HA-PSIP1/p75 (from UniProt O75475 1-530)
binding (eGFP-PARP1): binds
